Two substances from publication PMC5868269 can be followed below.

Chains of the proteins cited; added tags and fusions are not shown. Lines headed by an entry give the natural chain unless they say otherwise; changes in a name come on top. Residues count along the entry.
UniProt Q99523, residues 78-831: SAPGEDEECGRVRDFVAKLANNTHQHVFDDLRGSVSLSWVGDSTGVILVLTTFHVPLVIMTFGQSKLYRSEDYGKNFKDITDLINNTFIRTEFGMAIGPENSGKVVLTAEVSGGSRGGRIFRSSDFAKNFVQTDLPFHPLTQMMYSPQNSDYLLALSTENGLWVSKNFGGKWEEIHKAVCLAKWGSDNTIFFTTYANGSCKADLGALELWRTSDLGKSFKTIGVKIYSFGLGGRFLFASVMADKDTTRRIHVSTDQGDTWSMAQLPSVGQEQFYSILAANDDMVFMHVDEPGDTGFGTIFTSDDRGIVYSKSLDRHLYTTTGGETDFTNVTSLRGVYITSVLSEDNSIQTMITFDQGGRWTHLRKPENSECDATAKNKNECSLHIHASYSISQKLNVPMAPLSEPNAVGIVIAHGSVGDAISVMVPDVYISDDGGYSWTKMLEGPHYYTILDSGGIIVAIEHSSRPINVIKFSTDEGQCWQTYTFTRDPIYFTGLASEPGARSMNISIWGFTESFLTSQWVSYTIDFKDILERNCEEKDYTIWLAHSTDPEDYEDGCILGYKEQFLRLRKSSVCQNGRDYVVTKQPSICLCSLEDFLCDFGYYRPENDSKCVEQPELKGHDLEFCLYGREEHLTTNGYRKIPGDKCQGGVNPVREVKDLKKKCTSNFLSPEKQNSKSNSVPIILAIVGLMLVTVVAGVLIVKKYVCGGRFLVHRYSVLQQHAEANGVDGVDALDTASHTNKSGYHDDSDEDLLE

Experiment [1] concerns the target His6-sortilin full length (Full) (human) (UniProt Q99523). The experiment can be described thus: non-reducing SDS-PAGE and Western blot; lysates of transfected HEK293 cells in non-reducing Laemmli buffer, anti-FLAG or anti-His6 blot; disulfide-linked homodimers and multimers; some cells treated with 2-FPA for 24 h. (In general: A western blot detects proteins with antibodies after separation by electrophoresis.)

The target in experiment [2] is FLAG-sortilin wp (without propeptide) (human) (UniProt Q99523). The experiment is described as above.

These are yes or no findings as the source states them, for the method shown. Some entries that bind do so weakly or less than the wild type.

“His6-sortilin full length (Full) (from UniProt Q99523-1 78-831) (receptor)”: in experiment [1], the binding entry is given as “binds”.
For the substance “FLAG-sortilin wp (without propeptide) (from UniProt Q99523-1 34-831) (receptor)”, the binding entry in experiment [2] is on record as “binds”.
